{"sequences": {"note": "Sequences of proteins named here, by UniProt entry; tags and fusion partners are left off. A change or cut given only in a name is not applied to a line headed by its entry.", "UniProt O94782": "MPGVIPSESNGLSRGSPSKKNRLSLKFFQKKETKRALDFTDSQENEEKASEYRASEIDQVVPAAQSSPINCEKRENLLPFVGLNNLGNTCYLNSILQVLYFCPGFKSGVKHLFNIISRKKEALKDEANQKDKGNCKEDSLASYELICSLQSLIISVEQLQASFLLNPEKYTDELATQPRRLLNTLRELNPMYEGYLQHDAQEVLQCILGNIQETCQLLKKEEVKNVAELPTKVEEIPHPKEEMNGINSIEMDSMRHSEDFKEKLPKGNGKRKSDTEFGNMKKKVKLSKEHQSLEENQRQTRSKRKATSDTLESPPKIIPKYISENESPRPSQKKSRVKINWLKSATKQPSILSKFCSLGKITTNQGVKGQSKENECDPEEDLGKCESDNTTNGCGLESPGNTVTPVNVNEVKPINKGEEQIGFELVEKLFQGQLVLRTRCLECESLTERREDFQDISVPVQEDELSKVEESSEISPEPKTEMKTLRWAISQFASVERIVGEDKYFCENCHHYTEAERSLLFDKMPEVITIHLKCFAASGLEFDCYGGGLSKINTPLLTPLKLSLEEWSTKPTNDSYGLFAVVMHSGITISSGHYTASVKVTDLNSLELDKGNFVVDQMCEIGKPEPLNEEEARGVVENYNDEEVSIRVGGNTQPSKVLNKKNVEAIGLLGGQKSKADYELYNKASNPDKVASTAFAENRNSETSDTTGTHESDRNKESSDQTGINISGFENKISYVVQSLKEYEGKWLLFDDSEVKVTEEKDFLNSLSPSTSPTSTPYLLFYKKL"}, "source": "PubChem BioAssay AID743255", "about": "(National Center for Advancing Translational Sciences (NCATS), 2014)", "note": "The campaign covered roughly 390,000 compounds. About 910 (0.23%) were called active. This list was built around the results that the source calls inconclusive (neither active nor inactive); the mix of calls is not that of the screen. Calls follow the shape of the dose curve; as a rule, active = well fitted inhibition curve with a large enough effect; inconclusive = small, poorly fitted or top-dose-only effect; inactive = no such curve, though single readings can be large or run the other way. Potencies beside an inconclusive call are fits to weak or partial responses and may not hold up. % is scaled to controls: 0 for no effect and ±100 for the full control effect; potency is read from the fitted curve at half-maximal effect.", "data": [{"target": "Ubiquitin carboxyl-terminal hydrolase 1 (Homo sapiens) (UniProt O94782)", "experiment": "Inhibitors of USP1/UAF1: Primary Screen; also: nearly all actives have a fitted effect of over 60% in size", "settings": "recombinant USP1/UAF1, Ub-Rhodamine cleavage fluorescence; activity change, negative = inhibition: at 57.1 µM (top of the series)", "how_it_was_run": "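1 nM enzyme complex + cpd, 15 min RT; start with Ub-Rho 150nM final; kinetic fluorescence ex 480/em 540, 6 reads q60 s. Buffer 50mM HEPES pH 7.8, 0.5mM EDTA, 0.1 mg/ml BSA, 1mM TCEP, 0.01% Tween-20.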", "values": [{"smiles": "CCN1C(=O)C(O)(CC(=O)c2ccc3c(c2)OCCO3)c2ccccc21", "note": "(stereo unspecified)", "Potency": "inconclusive: 31.6 µM [inhibitor, partial curve]"}, {"smiles": "Cc1ccc(CNC(=O)CC2(CC3=NS(=O)(=O)c4ccccc4N3)CCCC2)cc1", "Potency": "inconclusive: 44.7 µM [inhibitor, partial curve]"}, {"smiles": "COc1cc(S(=O)(=O)NCCOC23CC4CC(CC(C4)C2)C3)c(OC)cc1Cl", "activity change, negative = inhibition": "inactive: -12.3%"}, {"smiles": "C=CCNC(=O)c1onc(CSc2cc(C)cc(C)c2)c1C(=O)O", "Potency": "inconclusive: 39.8 µM [inhibitor, partial curve, poor fit]"}, {"smiles": "COC(=O)COc1ccc(/C=C2\\SC(=O)N(CC(=O)Nc3ccccc3F)C2=O)cc1", "Potency": "inconclusive: 44.7 µM [inhibitor, partial curve, poor fit]"}, {"smiles": "CCOc1ccccc1N1CCN(c2ncnc3scc(-c4ccc(OC)cc4)c23)CC1", "Potency": "inconclusive: 50.1 µM [inhibitor, partial curve, poor fit]"}, {"smiles": "Nc1ccccc1SSc1ccccc1N", "Potency": "inconclusive: 39.8 µM [inhibitor, partial curve]"}, {"smiles": "O=c1c(-c2ccccc2)c(O)nc2ccccn12", "Potency": "inconclusive: 0.631 µM [inhibitor, full curve, poor fit]"}, {"smiles": "Oc1ccc(CNc2ccc(F)cc2)c2cccnc12", "Potency": "inconclusive: 31.6 µM [inhibitor, partial curve]"}, {"smiles": "O=C1NC(=S)SC1=Cc1cccs1", "Potency": "inconclusive: 22.4 µM [inhibitor, single point]"}, {"smiles": "COc1cccc(NC(=O)CSc2nc3ccc(NC(=O)c4cccs4)cc3s2)c1", "Potency": "inconclusive: 0.1 µM [inhibitor, full curve, poor fit]"}, {"smiles": "CC1=C(C(=O)OC(C)C)C(c2cccs2)C(C(=O)OC(C)C)=C(C)N1", "activity change, negative = inhibition": "inactive: -22.3%"}, {"smiles": "O=C(N/N=C\\c1ccc(Cl)cc1Cl)c1sccc1-n1cccc1", "Potency": "inconclusive: 31.6 µM [inhibitor, partial curve]"}, {"smiles": "O=C(COc1ccc(F)cc1)OCCN1CCOCC1", "activity change, negative = inhibition": "inactive: -18.1%"}, {"smiles": "CCOc1ccc(N=C(C)C2=C(O)c3ccccc3C2=O)cc1", "activity change, negative = inhibition": "inactive: -2.87%"}, {"smiles": "COc1cccc(C2=C(C(C)=O)Sc3nncn3N2C(C)=O)c1", "Potency": "inconclusive: 17.8 µM [inhibitor, partial curve]"}, {"smiles": "Cc1cccc(-c2nc3c(c(SCC(=O)N4CCOCC4)n2)Cc2c(CO)cnc(C)c2O3)c1", "Potency": "inconclusive: 39.8 µM [inhibitor, partial curve]"}, {"smiles": "CCOC(=O)C1=C(O)/C(=C\\c2cc(C)n(-c3ccc(F)cc3)c2C)N=C1C", "Potency": "inconclusive: 39.8 µM [inhibitor, partial curve]"}, {"smiles": "CN(CC(=O)Nc1cccc(F)c1)C(=O)CN1c2cccc3cccc(c23)S1(=O)=O", "Potency": "inconclusive: 44.7 µM [inhibitor, partial curve]"}, {"smiles": "Cc1ccnc(SCC(=O)c2cccc([N+](=O)[O-])c2)n1", "activity change, negative = inhibition": "inactive: -23%"}, {"smiles": "O=C(NCc1ccccc1)c1onc(CSc2ccc(Cl)cc2)c1C(=O)NCc1ccccc1", "Potency": "inconclusive: 44.7 µM [inhibitor, partial curve, poor fit]"}, {"smiles": "CCc1ccc(OC(C)c2nc(-c3ccc(-n4cccc4)cc3)no2)cc1", "note": "(stereo unspecified)", "Potency": "inconclusive: 44.7 µM [inhibitor, partial curve, poor fit]"}, {"smiles": "COc1ccccc1/C=C/c1nc(S(=O)(=O)c2ccccc2)c(N(C)C)o1", "activity change, negative = inhibition": "inactive: -26%"}, {"smiles": "COc1ccc(CCNC(=O)CCCOc2ccc(Cl)cc2)cc1OC", "activity change, negative = inhibition": "inactive: -15.6%"}, {"smiles": "CCOc1ccc(-c2nonc2NC(=O)c2oc3ccc(F)cc3c2C)cc1", "Potency": "inconclusive: 7.08 µM [inhibitor, partial curve]"}, {"smiles": "Cc1ccc(/C=C(\\C#N)C(=O)Nc2c(C)cccc2C)s1", "Potency": "inconclusive: 25.1 µM [inhibitor, partial curve, poor fit]"}, {"smiles": "O=C(Nc1ccc2oc(=O)ccc2c1)c1ccc(-c2cccc([N+](=O)[O-])c2)o1", "Potency": "inconclusive: 12.6 µM [inhibitor, partial curve]"}, {"smiles": "O=C(Cn1c(SCc2cccc(F)c2)nc2cccnc21)Nc1ccc(F)c(Cl)c1", "activity change, negative = inhibition": "inactive: -20.2%"}, {"smiles": "COc1ccccc1NC(c1ccc(Cl)cc1)c1nnc(-c2cccc(F)c2)o1", "note": "(stereo unspecified)", "Potency": "inconclusive: 56.2 µM [inhibitor, partial curve, poor fit]"}, {"smiles": "COc1cccc(-c2nn(C)c3sc(C(=O)NCc4cc(OC)ccc4OC)cc23)c1", "Potency": "inconclusive: 0.447 µM [inhibitor, full curve, poor fit]"}, {"smiles": "O=C(CCS(=O)(=O)c1nc(-c2cccs2)cc(C(F)(F)F)n1)Nc1ccc(OC(F)(F)F)cc1", "Potency": "active: 14.1 µM"}, {"smiles": "COc1ccc(CCNC(=O)c2ccc3c(c2)N(Cc2c(F)cccc2Cl)C(=O)CS3)cc1OC", "Potency": "inconclusive: 35.5 µM [inhibitor, partial curve, poor fit]"}, {"smiles": "O=C(Nc1cccc(S(=O)(=O)N2CCCC2)c1)c1ccc2ccccc2n1", "Potency": "inconclusive: 31.6 µM [inhibitor, partial curve]"}, {"smiles": "Cc1nc2ccccc2n1Cc1ccc(Br)cc1", "activity change, negative = inhibition": "inactive: -12.1%"}, {"smiles": "Cc1cccc(N2CCN(C(=O)CCc3nnc4n(CC(C)C)c(=O)c5ccccc5n34)CC2)c1C", "Potency": "inconclusive: 31.6 µM [inhibitor, partial curve]"}, {"smiles": "Cn1cnnc1Sc1ccc(C(F)(F)F)cc1[N+](=O)[O-]", "Potency": "inconclusive: 31.6 µM [inhibitor, partial curve]"}, {"smiles": "COC(=O)c1ccc2c(=O)n(CCCCCC(=O)NCc3ccc(Cl)cc3)c(=O)[nH]c2c1", "Potency": "inconclusive: 126 µM [inhibitor, partial curve, poor fit]"}, {"smiles": "O=S(=O)(Nc1nc2n(n1)C(c1ccc(F)cc1)C=C(c1ccccc1)N2)c1ccccc1", "note": "(stereo unspecified)", "Potency": "inconclusive: 35.5 µM [inhibitor, partial curve, poor fit]"}, {"smiles": "CCCCOC(=O)C1=C(C)Nc2ncnn2C1c1cccc(OC)c1", "note": "(stereo unspecified)", "activity change, negative = inhibition": "inactive: -19.2%"}, {"smiles": "Cc1ccc(S(=O)(=O)/N=C2/C=C(C3C(=O)CC(C)(C)CC3=O)C(=O)c3ccccc32)cc1", "Potency": "inconclusive: 28.2 µM [inhibitor, single point]"}, {"smiles": "CC(=O)Nc1cc(OC(C)=O)c2nonc2c1OC(C)=O", "Potency": "active: 3.98 µM"}]}]}
